Measurements published in patent US20230416765A1, “AGR[…] METHODS OF TR[…]” (priority 2020, published 2023).
At least one structure is not confirmed: it was looked up by name or label, or the drawing left a doubt.

Tested on: MSU440
Assay: Antibiotic susceptibility test on MSU440
Format: cell-based, Agrobacterium rhizogenes
Description: The development of a disarmed strain of MSU440 relied on a selectable marker (an antibiotic resistance gene or the counter-selectable marker sacB). Antibiotic susceptibility test on MSU440 were formed with the antibiotics outlined in Table 5.

Structure (SMILES)	Resistant or susceptible (MSU440 response to antibiotic at 50 ug/mL)	Resistant or susceptible (MSU440 response to antibiotic at 36 ug/mL)
NC[C@H]1O[C@H](O[C@H]2[C@H](O)[C@@H](O[C@H]3O[C@H](CO)[C@@H](O)[C@H](N)[C@H]3O)[C@H](N)C[C@@H]2N)[C@H](O)[C@@H](O)[C@@H]1O [kanamycin]	susceptible	
CN(C)[C@@H]1C(O)=C(C(N)=O)C(=O)[C@@]2(O)C(O)=C3C(=O)c4c(O)cccc4[C@@](C)(O)[C@H]3C[C@@H]12 [tetracycline]		susceptible
